Data reported in paper PMC12116067.
No constants are given. Whether binding was seen depends on the method and setting. Binding seen in cells or lysates may run through a third protein.

Amino acid sequences for entries named in this document (tags omitted).
UniProt P03107: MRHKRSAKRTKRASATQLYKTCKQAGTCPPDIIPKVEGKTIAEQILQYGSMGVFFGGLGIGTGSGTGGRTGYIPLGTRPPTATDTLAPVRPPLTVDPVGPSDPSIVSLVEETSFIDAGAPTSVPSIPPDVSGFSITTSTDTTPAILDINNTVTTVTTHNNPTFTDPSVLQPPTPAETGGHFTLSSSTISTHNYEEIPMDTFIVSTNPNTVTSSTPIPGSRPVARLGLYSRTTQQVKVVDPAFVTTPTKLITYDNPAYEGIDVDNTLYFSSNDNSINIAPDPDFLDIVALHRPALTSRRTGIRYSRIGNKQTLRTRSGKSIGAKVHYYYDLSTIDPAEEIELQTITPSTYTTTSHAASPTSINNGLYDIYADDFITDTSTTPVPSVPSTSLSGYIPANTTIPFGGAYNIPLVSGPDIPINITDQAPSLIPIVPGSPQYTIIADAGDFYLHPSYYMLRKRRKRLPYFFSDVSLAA

Molecular target: HPV16 L2 protein fused with five carboxy terminus HA tags, in HPV16 pseudovirus (HPV16) (UniProt P03107)
Test: co-IP

B1: Sec24a (protein, UniProt O95486 1-1093)
chain: MSQPGIPASGGAPASLQAQNGAALASGSPYTNGPVQNALLSSQESVSQGYNFQLPGSYPHPIPAKTLNPVSGQSNYGGSQGSGQTLNRPPVASNPVTPSLHSGPAPRMPLPASQNPATTPMPSSSFLPEANLPPPLNWQYNYPSTASQTNHCPRASSQPTVSGNTSLTTNHQYVSSGYPSLQNSFIKSGPSVPPLVNPPLPTTFQPGAPHGPPPAGGPPPVRALTPLTSSYRDVPQPLFNSAVNQEGITSNTNNGSMVVHSSYDEIEGGGLLATPQLTNKNPKMSRSVGYSYPSLPPGYQNTTPPGATGVPPSSLNYPSGPQAFTQTPLGANHLTTSMSGLSLQPEGLRVVNLLQERNMLPSTPLKPPVPNLHEDIQKLNCNPELFRCTLTSIPQTQALLNKAKLPLGLLLHPFKDLVQLPVVTSSTIVRCRSCRTYINPFVSFLDQRRWKCNLCYRVNDVPEEFLYNPLTRVYGEPHRRPEVQNATIEFMAPSEYMLRPPQPPVYLFVFDVSHNAVETGYLNSVCQSLLDNLDLLPGNTRTKIGFITFDSTIHFYGLQESLSQPQMLIVSDIEDVFIPMPENLLVNLNESKELVQDLLKTLPQMFTKTLETQSALGPALQAAFKLMSPTGGRMSVFQTQLPTLGVGALKPREEPNHRSSAKDIHMTPSTDFYKKLALDCSGQQVAVDLFLLSGQYSDLASLGCISRYSAGSVYYYPSYHHQHNPVQVQKLQKELQRYLTRKIGFEAVMRIRCTKGLSIHTFHGNFFVRSTDLLSLPNVNPDAGYAVQMSVEESLTDTQLVSFQSALLYTSSKGERRIRVHTLCLPVVSTLNDVFLGADVQAISGLLANMAVDRSMTASLSDARDALVNAVIDSLSAYRSSVLSNQQPGLMVPFSLRLFPLFVLALLKQKSFQTGTNARLDERIFAMCQVKNQPLVYLMLTTHPSLYRVDNLSDEGALNISDRTIPQPPILQLSVEKLSRDGAFLMDAGSVLMLWVGKNCTQNFLSQVLGVQNYASIPQPMTDLPELDTPESARIIAFISWLREQRPFFPILYVIRDESPMKANFLQNMIEDRTESALSYYEFLLHIQQQVNK
**Q.** How did the binding turn out when B1 was run?
**A.** no binding
